# Data: PMC7819943, “Rice protein-binding microarrays: a tool to detect cis-acting elements near promoter regions in rice”
# The chains behind the UniProt entries cited, without tags or fusion partners.
# UniProt Q0JBA9, entry or part of it: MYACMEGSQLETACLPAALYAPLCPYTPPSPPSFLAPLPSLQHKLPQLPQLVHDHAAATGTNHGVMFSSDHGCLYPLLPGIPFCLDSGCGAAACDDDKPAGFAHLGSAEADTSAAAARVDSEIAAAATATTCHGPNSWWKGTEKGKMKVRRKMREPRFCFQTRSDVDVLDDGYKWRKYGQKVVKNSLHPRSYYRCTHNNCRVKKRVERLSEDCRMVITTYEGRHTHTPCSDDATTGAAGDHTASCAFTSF
# This is one part of the list.
# Biological target: OsWRKY34 (Oryza sativa, UniProt Q0JBA9 1-250)
# Assay: protein-binding microarray (RPBM); PBS, 2% BSA, 51.3 ng/ul salmon testes DNA, 50 uM zinc acetate, 200 nM TF, 25 C, 1 h; high values mean tight binding
# Details: protein: recombinant; tags: N-terminal polyhistidine and DsRed monomer fusion (pET32a); label: CyDye5-dUTP incorporated in the synthesized complementary strand; 3' TTTTT single-stranded linker to array surface; dsDNA, one strand shown
# Method in brief: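 Polyhistidine-tagged DsRed fusions of transcription factors, joined at the N-terminus, were expressed in E. coli BL21-CodonPlus and isolated on Ni–NTA. They were incubated at 200 nM for 1 h at 25 °C on a custom Agilent array, double-stranded and BSA-blocked, in PBS with 2% BSA, salmon testes DNA and 50 µM zinc acetate. The binding signal is per-feature fluorescence intensity (arbitrary units) read on an Axon 4000B scanner after washing.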
row,Sequence,binding signal
1,ATCTCACTCCCTTATATCGCTCGCTCACTCGCTAGCTCGCCGGAGTCACCTAGTGCAG,9970 fluorescence intensity (a.u.)
2,ACGGGCAAGCGGGCTTGTTTATCCCGCTTATCCCACTTCTCGGAGTCACCTAGTGCAG,8140 fluorescence intensity (a.u.)
3,TAAATAAGCAGTGCAATGGCTCTTGTATTTTTGACTTTTTCGGAGTCACCTAGTGCAG,8230 fluorescence intensity (a.u.)
4,GCTACAAATCTGTAGCCCGCTGCTCTTCTCTCTCCTGATTCGGAGTCACCTAGTGCAG,9190 fluorescence intensity (a.u.)
5,CTAGCTACCATCTATACTAGTATCAAGTTTTTTTGTTCAGCGGAGTCACCTAGTGCAG,9290 fluorescence intensity (a.u.)
6,CGTAATATCACATCTCCTGATGGCCTGCAATTTTTTTTACCGGAGTCACCTAGTGCAG,8210 fluorescence intensity (a.u.)
7,GTTTTGATTGGCATATGGTCCCTCCAATCCGTGTAATTGTCGGAGTCACCTAGTGCAG,8320 fluorescence intensity (a.u.)
8,AAGCATACCCTTTGTATTTGTTTTTTCTTCCCTCAAATCTCGGAGTCACCTAGTGCAG,8530 fluorescence intensity (a.u.)
9,TGCACCGCGCGCAGGGTAGGGTGGGCGTCCTTGCCATTGTCGGAGTCACCTAGTGCAG,8740 fluorescence intensity (a.u.)
10,ATGTCAGCTACCCACGTTTTTTCACAAGAGCATTTTTCCACGGAGTCACCTAGTGCAG,8340 fluorescence intensity (a.u.)
11,TACCTTTTGTACGGTTAACATCTCTAGATACGTCTACTAACGGAGTCACCTAGTGCAG,8790 fluorescence intensity (a.u.)
12,GGTGGTTTGAATTTGGTGTGGCGTTTTTCTTGGGCAGGGGCGGAGTCACCTAGTGCAG,21500 fluorescence intensity (a.u.)
13,AGCCACAAGATCCCATGAATATCTCTGACCGTCGCAAGATCGGAGTCACCTAGTGCAG,8130 fluorescence intensity (a.u.)
14,CGAACCCAAACCCGCGAGCCGTTACCCTTCCCGCCATTTCCGGAGTCACCTAGTGCAG,13100 fluorescence intensity (a.u.)
15,AGTGCATTCTCTCTCCTTATCTTCTCTCTCTTCCACATCACGGAGTCACCTAGTGCAG,12100 fluorescence intensity (a.u.)
16,GTAAGCACATATCCTCCTCGATAACCCCACCGGAAAATATCGGAGTCACCTAGTGCAG,8160 fluorescence intensity (a.u.)
17,GGTTATATCGCGTGGTTCAATTCCGGGGCCTTATCTCTCTCGGAGTCACCTAGTGCAG,13200 fluorescence intensity (a.u.)
18,TCTCTGCTGCCACCGTCGTCTCGTGCCTTGCATGTTTCCGCGGAGTCACCTAGTGCAG,11700 fluorescence intensity (a.u.)
19,ATCACCGCCTTTTACGTACCGGCTCTTTCACCTAGCTAGCCGGAGTCACCTAGTGCAG,10200 fluorescence intensity (a.u.)
20,AAGAGTTTATTTTTATTTTTTGTGCACATTGAATTCAATTCGGAGTCACCTAGTGCAG,9080 fluorescence intensity (a.u.)
21,CCCATCGTCCCATTCATTCGCTCACTCATCGACCCGCCCTCGGAGTCACCTAGTGCAG,8870 fluorescence intensity (a.u.)

# Random excerpt: 3 records from the list.
row,Sequence,binding signal
10,ATGTCAGCTACCCACGTTTTTTCACAAGAGCATTTTTCCACGGAGTCACCTAGTGCAG,8340 fluorescence intensity (a.u.)
3,TAAATAAGCAGTGCAATGGCTCTTGTATTTTTGACTTTTTCGGAGTCACCTAGTGCAG,8230 fluorescence intensity (a.u.)
17,GGTTATATCGCGTGGTTCAATTCCGGGGCCTTATCTCTCTCGGAGTCACCTAGTGCAG,13200 fluorescence intensity (a.u.)

# Next results

row,Sequence,binding signal
1,GCCATGGTAACCGTCTTGCTATGTATGTGTACACCAATTTCGGAGTCACCTAGTGCAG,10100 fluorescence intensity (a.u.)
2,CTTGCTTTGTTTTTTCCTTGAGCGAGACACTTTGAGATTTCGGAGTCACCTAGTGCAG,8480 fluorescence intensity (a.u.)
3,CCGTTCGCCATTCGTTTCCACGCATCCCTTCCACTGACTCCGGAGTCACCTAGTGCAG,11300 fluorescence intensity (a.u.)
4,ACTCAGCGTTTACATTACCATCGGTAACCGCGCGGTTACCCGGAGTCACCTAGTGCAG,8420 fluorescence intensity (a.u.)
5,AACTATTCTATTATGGTTCCAGCTACAGTTTGCAGTTGTTCGGAGTCACCTAGTGCAG,8920 fluorescence intensity (a.u.)
6,TACTAATTCAAAATATAATATTTTTTATTACTCTTTTCTTCGGAGTCACCTAGTGCAG,8400 fluorescence intensity (a.u.)
7,CATCCCTGATCTCTCTATCTCTGTCGCTCGCGCAGCCATGCGGAGTCACCTAGTGCAG,9500 fluorescence intensity (a.u.)
8,GTGTTCAGGGGTCGGGGATCGAGATCAGCGGCGTGTCGTACGGAGTCACCTAGTGCAG,8110 fluorescence intensity (a.u.)
9,GATGGTCTCACGTAACTTCTTTGTTCCCTTTCTCTTCAATCGGAGTCACCTAGTGCAG,10500 fluorescence intensity (a.u.)
10,TCCGTGTCTAACTTTAATGGTCCGTCTTATTTTTTTTATACGGAGTCACCTAGTGCAG,13000 fluorescence intensity (a.u.)
11,ATATCAGTCCTGAATTCGTTCATCTCCTCCATATCAACCACGGAGTCACCTAGTGCAG,8440 fluorescence intensity (a.u.)
12,CCATCCAACCTTTAGCCTGTGCCTGTATAATATATTTATACGGAGTCACCTAGTGCAG,8360 fluorescence intensity (a.u.)
13,CTCAACTACGTATTAGTTAGCCGCCTACTACTACTTGCTACGGAGTCACCTAGTGCAG,8390 fluorescence intensity (a.u.)
14,GGTGGTGGCGGTGCTCCTTGGTGTGGGGATAAACAGAGGTCGGAGTCACCTAGTGCAG,10700 fluorescence intensity (a.u.)
15,GCTGGAGGGGCTGGGGTATGTTCTTTTTGTATATGACGTTCGGAGTCACCTAGTGCAG,20300 fluorescence intensity (a.u.)
16,GTTTTTCCTTTTTGAGCTCAAATGCGAGCTGCCAGCCCCACGGAGTCACCTAGTGCAG,8520 fluorescence intensity (a.u.)
17,CAGGTTTTAATTTTTTTTCTCGAGTTTGTCTTTTGTTGCACGGAGTCACCTAGTGCAG,8060 fluorescence intensity (a.u.)
18,GATTGTAATTTCTGTATTTGTGCAGGGACCTATTAGTATTCGGAGTCACCTAGTGCAG,8050 fluorescence intensity (a.u.)
19,ATCTGCTACCTCTTTGCAGTACAGTACTGTTGGCTGTTTCCGGAGTCACCTAGTGCAG,9990 fluorescence intensity (a.u.)
20,GCTCCACCTTCCACCGCTTGCTGCTCATAAACGAGTTCACCGGAGTCACCTAGTGCAG,9170 fluorescence intensity (a.u.)
21,AAAAACTGGTCAACCTCCGCCATCTCAATTTGGATCTTTGCGGAGTCACCTAGTGCAG,10100 fluorescence intensity (a.u.)
